Measurements as given in publication PMC5679597.
No constants are given. Whether binding was seen depends on the method and setting. Binding seen in cells or lysates may run through a third protein. These calls come from enrichment with a bait or labelling near it, and not all partners need be listed. Tags and fused reporters may be left off the sequences shown.

T1: GFP-tagged LNX1p80 (Ligand of Numb protein X1, p80 isoform) (mouse) (UniProt O70263)
T1 sequence: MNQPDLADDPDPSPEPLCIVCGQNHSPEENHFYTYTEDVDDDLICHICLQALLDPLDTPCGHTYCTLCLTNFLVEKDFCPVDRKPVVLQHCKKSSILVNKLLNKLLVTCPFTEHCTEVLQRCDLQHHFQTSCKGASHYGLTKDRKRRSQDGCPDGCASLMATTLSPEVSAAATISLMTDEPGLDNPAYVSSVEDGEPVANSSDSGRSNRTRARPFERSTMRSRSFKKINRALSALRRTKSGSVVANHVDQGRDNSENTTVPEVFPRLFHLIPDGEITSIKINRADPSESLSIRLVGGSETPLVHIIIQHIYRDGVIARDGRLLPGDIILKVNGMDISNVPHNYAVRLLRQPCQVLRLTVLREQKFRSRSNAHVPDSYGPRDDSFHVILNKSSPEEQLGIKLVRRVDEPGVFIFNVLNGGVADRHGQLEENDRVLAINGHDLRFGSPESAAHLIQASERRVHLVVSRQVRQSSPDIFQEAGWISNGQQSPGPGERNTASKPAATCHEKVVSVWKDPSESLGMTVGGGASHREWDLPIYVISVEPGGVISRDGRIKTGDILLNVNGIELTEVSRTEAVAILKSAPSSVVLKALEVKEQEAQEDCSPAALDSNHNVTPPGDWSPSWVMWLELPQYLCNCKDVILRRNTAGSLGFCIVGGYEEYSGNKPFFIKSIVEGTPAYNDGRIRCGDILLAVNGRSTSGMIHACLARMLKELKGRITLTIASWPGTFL

B1: ERC protein 2, endogenous (protein, UniProt O15083 1-957)
chain: MYGSARTITNLEGSPSRSPRLPRSPRLGHRRTSSGGGGGTGKTLSMENIQSLNAAYATSGPMYLSDHEGVASTTYPKGTMTLGRATNRAVYGGRVTAMGSSPNIASAGLSHTDVLSYTDQHGGLTGSSHHHHHQVPSMLRQVRDSTMLDLQAQLKELQRENDLLRKELDIKDSKLGSSMNSIKTFWSPELKKERVLRKEEAARMSVLKEQMRVSHEENQHLQLTIQALQDELRTQRDLNHLLQQESGNRGAEHFTIELTEENFRRLQAEHDRQAKELFLLRKTLEEMELRIETQKQTLNARDESIKKLLEMLQSKGLPSKSLEDDNERTRRMAEAESQVSHLEVILDQKEKENIHLREELHRRSQLQPEPAKTKALQTVIEMKDTKIASLERNIRDLEDEIQMLKANGVLNTEDREEEIKQIEVYKSHSKFMKTKIDQLKQELSKKESELLALQTKLETLSNQNSDCKQHIEVLKESLTAKEQRAAILQTEVDALRLRLEEKESFLNKKTKQLQDLTEEKGTLAGEIRDMKDMLEVKERKINVLQKKIENLQEQLRDKDKQLTNLKDRVKSLQTDSSNTDTALATLEEALSEKERIIERLKEQRERDDRERLEEIESFRKENKDLKEKVNALQAELTEKESSLIDLKEHASSLASAGLKRDSKLKSLEIAIEQKKEECSKLEAQLKKAHNIEDDSRMNPEFADQIKQLDKEASYYRDECGKAQAEVDRLLEILKEVENEKNDKDKKIAELESLTLRHMKDQNKKVANLKHNQQLEKKKNAQLLEEVRRREDSMADNSQHLQIEELMNALEKTRQELDATKARLASTQQSLAEKEAHLANLRIERRKQLEEILEMKQEALLAAISEKDANIALLELSASKKKKTQEEVMALKREKDRLVHQLKQQTQNRMKLMADNYDDDHHHYHHHHHHHHHRSPGRSQHSNHRPSPDQDDEEGIWA
B2: TRAF4, endogenous (protein, UniProt Q9BUZ4 1-470)
chain: MPGFDYKFLEKPKRRLLCPLCGKPMREPVQVSTCGHRFCDTCLQEFLSEGVFKCPEDQLPLDYAKIYPDPELEVQVLGLPIRCIHSEEGCRWSGPLRHLQGHLNTCSFNVIPCPNRCPMKLSRRDLPAHLQHDCPKRRLKCEFCGCDFSGEAYESHEGMCPQESVYCENKCGARMMRRLLAQHATSECPKRTQPCTYCTKEFVFDTIQSHQYQCPRLPVACPNQCGVGTVAREDLPGHLKDSCNTALVLCPFKDSGCKHRCPKLAMARHVEESVKPHLAMMCALVSRQRQELQELRRELEELSVGSDGVLIWKIGSYGRRLQEAKAKPNLECFSPAFYTHKYGYKLQVSAFLNGNGSGEGTHLSLYIRVLPGAFDNLLEWPFARRVTFSLLDQSDPGLAKPQHVTETFHPDPNWKNFQKPGTWRGSLDESSLGFGYPKFISHQDIRKRNYVRDDAVFIRAAVELPRKILS
B3: DZIP3, endogenous (protein, UniProt Q86Y13 1-1208)
chain: MDSLPDEFFVRHPAVEDQRKEETENKLEKSSGQLNKQENDIPTDLVPVNLLLEVKKLLNAINTLPKGVVPHIKKFLQEDFSFQTMQREVAANSQNGEEIVPALTLRFLITQLEAALRNIQAGNYTAHQINIGYYLTLLFLYGVALTERGKKEDYTEAENKFLVMKMMIQENEICENFMSLVYFGRGLLRCAQKRYNGGLLEFHKSLQEIGDKNDHWFDIDPTEDEDLPTTFKDLLNNFIKTTESNIMKQTICSYLDCERSCEADILKNTSYKGFFQLMCSKSCCVYFHKICWKKFKNLKYPGENDQSFSGKKCLKEGCTGDMVRMLQCDVPGIVKILFEVVRKDEYITIENLGASYRKLISLKITDTDIRPKISLKFNTKDEMPIFKLDYNYFYHLLHIIIISGTDIVRQIFDEAMPPPLLKKELLIHKNVLESYYNHLWTNHPLGGSWHLLYPPNKELPQSKQFDLCLLLALIKHLNVFPAPKKGWNMEPPSSDISKSADILRLCKYRDILLSEILMNGLTESQFNSIWKKVSDILLRLGMMQEDIDKVKENPIENISLDYHQLSVYLGIPVPEIIQRMLSCYQQGIALQSITGSQRIEIEELQNEEEELSPPLMEYNINVKSHPEIQFAEINKDGTSIPSESSTESLKDLQEVKSKQRKKKKTKNKKNKDSKEDQVPYVVEKEEQLRKEQANPHSVSRLIKDDASDVQEDSAMEDKFYSLDELHILDMIEQGSAGKVTTDYGETEKERLARQRQLYKLHYQCEDFKRQLRTVTFRWQENQMQIKKKDKIIASLNQQVAFGINKVSKLQRQIHAKDNEIKNLKEQLSMKRSQWEMEKHNLESTMKTYVSKLNAETSRALTAEVYFLQCRRDFGLLHLEQTEKECLNQLARVTHMAASNLESLQLKAAVDSWNAIVADVRNKIAFLRTQYNEQINKVKQGFALSTLPPVQLPPPPPSPEILMQQFLGRPLVKESFFRPILTVPQMPAVCPGVVSATGQPRAPLMTGIAWALPAPVGDAVPPSAGLRSDPSIMNWERITDRLKTAFPQQTRKELTDFLRKLKDAYGKSLSELTFDEIVCKISQFIDPKKSQSQGKSVSNVNCVSPSHSPSQPDAAQPPKPAWRPLTSQGPATWEGASNPDEEEEEEEPCVICHENLSPENLSVLPCAHKFHAQCIRPWLMQQGTCPTCRLHVLLPEEFPGHPSRQLPKI
B4: PEX6, endogenous (protein, UniProt Q13608 1-980)
chain: MALAVLRVLEPFPTETPPLAVLLPPGGPWPAAELGLVLALRPAGESPAGPALLVAALEGPDAGTEEQGPGPPQLLVSRALLRLLALGSGAWVRARAVRRPPALGWALLGTSLGPGLGPRVGPLLVRRGETLPVPGPRVLETRPALQGLLGPGTRLAVTELRGRARLCPESGDSSRPPPPPVVSSFAVSGTVRRLQGVLGGTGDSLGVSRSCLRGLGLFQGEWVWVAQARESSNTSQPHLARVQVLEPRWDLSDRLGPGSGPLGEPLADGLALVPATLAFNLGCDPLEMGELRIQRYLEGSIAPEDKGSCSLLPGPPFARELHIEIVSSPHYSTNGNYDGVLYRHFQIPRVVQEGDVLCVPTIGQVEILEGSPEKLPRWREMFFKVKKTVGEAPDGPASAYLADTTHTSLYMVGSTLSPVPWLPSEESTLWSSLSPPGLEALVSELCAVLKPRLQPGGALLTGTSSVLLRGPPGCGKTTVVAAACSHLGLHLLKVPCSSLCAESSGAVETKLQAIFSRARRCRPAVLLLTAVDLLGRDRDGLGEDARVMAVLRHLLLNEDPLNSCPPLMVVATTSRAQDLPADVQTAFPHELEVPALSEGQRLSILRALTAHLPLGQEVNLAQLARRCAGFVVGDLYALLTHSSRAACTRIKNSGLAGGLTEEDEGELCAAGFPLLAEDFGQALEQLQTAHSQAVGAPKIPSVSWHDVGGLQEVKKEILETIQLPLEHPELLSLGLRRSGLLLHGPPGTGKTLLAKAVATECSLTFLSVKGPELINMYVGQSEENVREVFARARAAAPCIIFFDELDSLAPSRGRSGDSGGVMDRVVSQLLAELDGLHSTQDVFVIGATNRPDLLDPALLRPGRFDKLVFVGANEDRASQLRVLSAITRKFKLEPSVSLVNVLDCCPPQLTGADLYSLCSDAMTAALKRRVHDLEEGLEPGSSALMLTMEDLLQAAARLQPSVSEQELLRYKRIQRKFAAC
B5: MARS, endogenous (protein, UniProt P56192 1-900)
chain: MRLFVSDGVPGCLPVLAAAGRARGRAEVLISTVGPEDCVVPFLTRPKVPVLQLDSGNYLFSTSAICRYFFLLSGWEQDDLTNQWLEWEATELQPALSAALYYLVVQGKKGEDVLGSVRRALTHIDHSLSRQNCPFLAGETESLADIVLWGALYPLLQDPAYLPEELSALHSWFQTLSTQEPCQRAAETVLKQQGVLALRPYLQKQPQPSPAEGRAVTNEPEEEELATLSEEEIAMAVTAWEKGLESLPPLRPQQNPVLPVAGERNVLITSALPYVNNVPHLGNIIGCVLSADVFARYSRLRQWNTLYLCGTDEYGTATETKALEEGLTPQEICDKYHIIHADIYRWFNISFDIFGRTTTPQQTKITQDIFQQLLKRGFVLQDTVEQLRCEHCARFLADRFVEGVCPFCGYEEARGDQCDKCGKLINAVELKKPQCKVCRSCPVVQSSQHLFLDLPKLEKRLEEWLGRTLPGSDWTPNAQFITRSWLRDGLKPRCITRDLKWGTPVPLEGFEDKVFYVWFDATIGYLSITANYTDQWERWWKNPEQVDLYQFMAKDNVPFHSLVFPCSALGAEDNYTLVSHLIATEYLNYEDGKFSKSRGVGVFGDMAQDTGIPADIWRFYLLYIRPEGQDSAFSWTDLLLKNNSELLNNLGNFINRAGMFVSKFFGGYVPEMVLTPDDQRLLAHVTLELQHYHQLLEKVRIRDALRSILTISRHGNQYIQVNEPWKRIKGSEADRQRAGTVTGLAVNIAALLSVMLQPYMPTVSATIQAQLQLPPPACSILLTNFLCTLPAGHQIGTVSPLFQKLENDQIESLRQRFGGGQAKTSPKPAVVETVTTAKPQQIQALMDEVTKQGNIVRELKAQKADKNEVAAEVAKLLDLKKQLAVAEGKPPEAPKGKKKK
B6: FLOT1, endogenous (protein, UniProt O75955 1-427)
chain: MFFTCGPNEAMVVSGFCRSPPVMVAGGRVFVLPCIQQIQRISLNTLTLNVKSEKVYTRHGVPISVTGIAQVKIQGQNKEMLAAACQMFLGKTEAEIAHIALETLEGHQRAIMAHMTVEEIYKDRQKFSEQVFKVASSDLVNMGISVVSYTLKDIHDDQDYLHSLGKARTAQVQKDARIGEAEAKRDAGIREAKAKQEKVSAQYLSEIEMAKAQRDYELKKAAYDIEVNTRRAQADLAYQLQVAKTKQQIEEQRVQVQVVERAQQVAVQEQEIARREKELEARVRKPAEAERYKLERLAEAEKSQLIMQAEAEAASVRMRGEAEAFAIGARARAEAEQMAKKAEAFQLYQEAAQLDMLLEKLPQVAEEISGPLTSANKITLVSSGSGTMGAAKVTGEVLDILTRLPESVERLTGVSISQVNHKPLRTA
B7: FLOT2, endogenous (protein, UniProt Q14254 1-428)
chain: MGNCHTVGPNEALVVSGGCCGSDYKQYVFGGWAWAWWCISDTQRISLEIMTLQPRCEDVETAEGVALTVTGVAQVKIMTEKELLAVACEQFLGKNVQDIKNVVLQTLEGHLRSILGTLTVEQIYQDRDQFAKLVREVAAPDVGRMGIEILSFTIKDVYDKVDYLSSLGKTQTAVVQRDADIGVAEAERDAGIREAECKKEMLDVKFMADTKIADSKRAFELQKSAFSEEVNIKTAEAQLAYELQGAREQQKIRQEEIEIEVVQRKKQIAVEAQEILRTDKELIATVRRPAEAEAHRIQQIAEGEKVKQVLLAQAEAEKIRKIGEAEAAVIEAMGKAEAERMKLKAEAYQKYGDAAKMALVLEALPQIAAKIAAPLTKVDEIVVLSGDNSKVTSEVNRLLAELPASVHALTGVDLSKIPLIKKATGVQV

Target: T1, GFP-tagged LNX1p80 (Ligand of Numb protein X1, p80 isoform) (mouse)
Assay: affinity purification with mass spectrometry; GFP-LNX1p80 complexes purified on magnetic GFP-Trap beads from stably transfected HEK 293 cells; gel slices, nano-LC MS/MS; proteins also found with GFP alone removed; Mascot protein score cut-off 70

binding, binds:
B1
B2
B3
B4
B5
B6
B7
